Test results taken from patent US6989378B2, “Testosterone derivative” (Akzo Nobel N.V., priority 1998, dated 2006).

Experiment: Relative dissolved potency (RDP): androgenic potency relative to testosterone times solubility relative to testosterone
Settings: relative to testosterone = 1

CCCCCCCCCCC(=O)O[C@H]1CC[C@H]2[C@H]3[C@H](CC[C@]12C)[C@H]1CCC(=O)C=C1C[C@H]3C [MENT undecanoate, (7α,17β)-7-methyl-17-[(1-oxoundecyl)oxy]estr-4-en-3-one]
RDP in arachis oil: 20.000 | RDP in oleic acid: ≧200

C[C@@H]1CC2=CC(=O)CC[C@@H]2[C@H]2CC[C@]3(C)[C@@H](O)CC[C@H]3[C@@H]21 [MENT, (7α,17β)-17-hydroxy-7-methylestr-4-en-3-one]
RDP in arachis oil: 10 | RDP in oleic acid: 6

CCCCCCCCCCC(=O)O[C@H]1CC[C@H]2[C@@H]3CCC4=CC(=O)CC[C@]4(C)[C@H]3CC[C@]12C [testosterone undecanoate, (17β)-17-[(1-Oxoundecyl)oxy]androst-4-en-3-one]
RDP in arachis oil: 450 | RDP in oleic acid: 8–10

C[C@]12CC[C@H]3[C@@H](CCC4=CC(=O)CC[C@@]43C)[C@@H]1CC[C@@H]2O [testosterone]
RDP in arachis oil: 1 | RDP in oleic acid: 1
